Data as given in PubChem BioAssay AID504808 (Drosophila RNAi Screening Center, 2011).

Screen: 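Fly genes required to hold E2F transcription in check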 (primary screen)
Cells: Drosophila S2 cells
Knock-down reagent: long dsRNA against Drosophila genes
Read-out: 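Dual luciferase plate measurements; E2F-specific signal taken as firefly over Renilla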
Reading the numbers: E2F firefly: higher = more E2F reporter activity; Renilla normaliser: higher = more normaliser reporter signal
Call rule: 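Called active if the normalised E2F reporter went up by over 50%; the cutoff is arbitrary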
The screen tested about 21,000 reagents; below is a random part of those with a known target gene and a result. In the full data, 18 (0.084%) were called active. 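Raw counts without plate normalisation, one of two replicates; the ratio scores behind the calls were not deposited.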 Entries without a mark were called inactive. The record does not give: the amount of reagent, the time to read-out.

CG14965 [SID104188216] | E2F firefly, rep 1: 76972; Renilla normaliser, rep 1: 3408
CG9624 [SID104196315] | E2F firefly, rep 1: 96953; Renilla normaliser, rep 1: 5322
tomboy20 [SID104194705] | E2F firefly, rep 1: 1.50e5; Renilla normaliser, rep 1: 6496
CG15107 [SID104186326] | E2F firefly, rep 1: 1.31e5; Renilla normaliser, rep 1: 4523
CG15404 [SID104180210] | E2F firefly, rep 1: 1.57e5; Renilla normaliser, rep 1: 5012
CG5439 [SID104182653] | E2F firefly, rep 1: 75176; Renilla normaliser, rep 1: 3267
Mppe (Metallophosphoesterase) [SID104187088] | E2F firefly, rep 1: 2558; Renilla normaliser, rep 1: 220
ValRS (Valyl-tRNA synthetase) [SID104186656] | E2F firefly, rep 1: 3174; Renilla normaliser, rep 1: 186
Got2 (Glutamate oxaloacetate transaminase 2) [SID104180435] | E2F firefly, rep 1: 88377; Renilla normaliser, rep 1: 3695
Uba3 (Ubiquitin-like activating enzyme 3) [SID104186169] | E2F firefly, rep 1: 2574; Renilla normaliser, rep 1: 208
CG46298 [SID104186014] | E2F firefly, rep 1: 1.40e5; Renilla normaliser, rep 1: 4761
dnk (deoxyribonucleoside kinase) [SID104196725] | E2F firefly, rep 1: 1.05e5; Renilla normaliser, rep 1: 6603
CG12355 [SID104189173] | E2F firefly, rep 1: 44611; Renilla normaliser, rep 1: 3234
CG12355 [SID104189675] | E2F firefly, rep 1: 1.42e5; Renilla normaliser, rep 1: 7751
CG9072 [SID104199939] | E2F firefly, rep 1: 2.15e5; Renilla normaliser, rep 1: 5772
CG3548 [SID104184179] | E2F firefly, rep 1: 83372; Renilla normaliser, rep 1: 3509
GstO1 (Glutathione S transferase O1) [SID104190480] | E2F firefly, rep 1: 87742; Renilla normaliser, rep 1: 3873
NaPi-T (Na[+]-dependent inorganic phosphate cotransporter) [SID104187268] | E2F firefly, rep 1: 1.12e5; Renilla normaliser, rep 1: 4124
CG13073 [SID104189748] | E2F firefly, rep 1: 1.52e5; Renilla normaliser, rep 1: 8661
CG10467 [SID104189520] | E2F firefly, rep 1: 97246; Renilla normaliser, rep 1: 3606
Uba2 (Ubiquitin-like activating enzyme 2) [SID104191103] | E2F firefly, rep 1: 99294; Renilla normaliser, rep 1: 4052
Rpt6R (Regulatory particle triple-A ATPase 6-related) [SID104195223] | E2F firefly, rep 1: 1.26e5; Renilla normaliser, rep 1: 6504
mmd (mind-meld) [SID104199464] | E2F firefly, rep 1: 1.21e5; Renilla normaliser, rep 1: 4599
mmd (mind-meld) [SID104199465] | E2F firefly, rep 1: 2.25e5; Renilla normaliser, rep 1: 6629
mmd (mind-meld) [SID104199953] | E2F firefly, rep 1: 2.23e5; Renilla normaliser, rep 1: 6660
Su(dx) (Suppressor of deltex) [SID104180583] | E2F firefly, rep 1: 85354; Renilla normaliser, rep 1: 3377
CG14834 [SID104189996] | E2F firefly, rep 1: 94901; Renilla normaliser, rep 1: 3901
BckdhB (Branched chain keto acid dehydrogenase E1 subunit beta) [SID104200975] | E2F firefly, rep 1: 1.49e5; Renilla normaliser, rep 1: 7161
Ndae1 (Na[+]-driven anion exchanger 1) [SID104180767] | E2F firefly, rep 1: 1.30e5; Renilla normaliser, rep 1: 6174
Ndae1 (Na[+]-driven anion exchanger 1) [SID104182562] | E2F firefly, rep 1: 83918; Renilla normaliser, rep 1: 3697
CG12539 [SID104199262] | E2F firefly, rep 1: 2.29e5; Renilla normaliser, rep 1: 7974
Tie (Tie-like receptor tyrosine kinase) [SID104187896] | E2F firefly, rep 1: 1.10e5; Renilla normaliser, rep 1: 3825
Tie (Tie-like receptor tyrosine kinase) [SID104188494] | E2F firefly, rep 1: 99407; Renilla normaliser, rep 1: 4391
CG43347 [SID104197774] | E2F firefly, rep 1: 77891; Renilla normaliser, rep 1: 4251
CG43347 [SID104198238] | E2F firefly, rep 1: 1.27e5; Renilla normaliser, rep 1: 5747
JhI-26 (Juvenile hormone-inducible protein 26) [SID104186643] | E2F firefly, rep 1: 69207; Renilla normaliser, rep 1: 3456
